Test results published in article PMC9995496, “A screen for MeCP2-TBL1 interaction inhibitors using a luminescence-based assay” (Scientific Reports, 2023).

Tested on: PRKACA-PRKAR2A interaction (SmBiT-PRKACA / LgBiT-PRKAR2A), protein kinase A
Set-up: NanoLuc complementation counter-screen in cell extract, PRKACA with PRKAR2A, loss of luminescence, detects NanoLuc interference
Conditions: counter-screen for NanoLuc interference; 0.5 h, 20 µM; inhibitor

Row | Structure (SMILES) | Inh (PKA)
1 | CCS(=O)(=O)N1CC(CC#N)(n2cc(-c3ncnc4[nH]ccc34)cn2)C1 [UM0141730:01, Baricitinib (LY3009104, INCB028050)] | 10.91%
2 | CN[C@@H]1C[C@H]2O[C@@](C)([C@@H]1OC)n1c3ccccc3c3c4c(c5c6ccccc6n2c5c31)C(=O)NC4 [UM0141941:01, Staurosporine] | 55.13%
3 | O=C(CCCCCCC(=O)Nc1ccccc1)NO [UM0128550:04, Vorinostat (SAHA, MK0683)] | 3.557%

The next lines start with the values.

Row | Inh (PKA) | Structure (SMILES)
4 | 11.75% | CN1C[C@@H]2c3ccccc3Oc3ccc(Cl)cc3[C@H]2C1 (racemic) [UM0141861:01, Asenapine]
5 | 16.49% | CNC(=O)c1ccccc1Sc1ccc2c(/C=C/c3ccccn3)n[nH]c2c1 [UM0142019:01, Axitinib (AG 013736)]
